{"source": "patent US20110282028A1", "about": "“METHOD FOR IDENTIFYING INHIBITORS OF LIPOTEICHOIC ACID SYNTHASE” (UNIVERSITY OF NEWCASTLE UPON TYNE, priority 2008, published 2011)", "key": {"[1]": {"system": "ltaS (strain 4285) mutant", "test": "Growth of ltaS mutant in presence of antibiotic", "type": "cell-based, B. subtilis", "details": "0.5 μg/ml kanamycin"}, "ltaS mutant": {"system": "ltaS mutant", "test": "Zone of inhibition on solid medium, ltaS mutant compared with wild-type", "type": "cell-based, B. subtilis", "details": "data not shown", "source_text": "In the process of constructing the deletion strain, we noticed that the ltaS mutant was also hyper-sensitive to various antibiotics and lysozyme. […] In other experiments on solid medium the zone of inhibition of all antibiotics tested (kanamycin, ampicillin, vancomycin, penicillin, spectinomycin, erythromycin, lincomycin, carbenicillin) was wider for the ltaS mutant than for the wild-type (not shown). […] The general increase in sensitivity of the mutant to antibiotics and lysozyme is consistent with the notion that LTA also provides a protective layer that restricts the access of many bioactive agents to sensitive sites in the cell envelope."}}, "note": "At least one structure is not confirmed: it was looked up by name or label, or the drawing left a doubt."}
{"smiles": "NC[C@H]1O[C@H](O[C@H]2[C@H](O)[C@@H](O[C@H]3O[C@H](CO)[C@@H](O)[C@H](N)[C@H]3O)[C@H](N)C[C@@H]2N)[C@H](O)[C@@H](O)[C@@H]1O", "note": "[kanamycin]", "values": [{"measurement": "growth of the ltaS mutant", "setting": "[1]", "result": "abolished"}, {"measurement": "zone of inhibition for the ltaS mutant versus the wild-type", "setting": "ltaS mutant", "result": "wider"}]}
